{
  "sequences": {"note": "Amino acid sequences for entries named in this document (tags omitted).", "UniProt Q0JBA9, entry or part of it": "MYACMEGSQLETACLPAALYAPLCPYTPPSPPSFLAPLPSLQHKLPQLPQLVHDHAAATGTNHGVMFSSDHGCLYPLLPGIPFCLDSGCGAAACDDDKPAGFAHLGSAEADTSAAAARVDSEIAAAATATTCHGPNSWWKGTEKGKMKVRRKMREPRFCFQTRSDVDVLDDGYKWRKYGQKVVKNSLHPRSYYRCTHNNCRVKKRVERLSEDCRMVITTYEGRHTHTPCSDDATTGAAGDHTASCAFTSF"},
  "source": "paper PMC7819943",
  "about": "“Rice protein-binding microarrays: a tool to detect cis-acting elements near promoter regions in rice”",
  "note": "This is one part of the list.",
  "data": [
    {"target": "OsWRKY34 (Oryza sativa, UniProt Q0JBA9 1-250)", "test": "protein-binding microarray (RPBM); PBS, 2% BSA, 51.3 ng/ul salmon testes DNA, 50 uM zinc acetate, 200 nM TF, 25 C, 1 h; high values mean tight binding", "settings": "protein: recombinant; tags: N-terminal polyhistidine and DsRed monomer fusion (pET32a); label: CyDye5-dUTP incorporated in the synthesized complementary strand; 3' TTTTT single-stranded linker to array surface; dsDNA, one strand shown", "how_it_was_run": "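Binding signal is reported as fluorescence intensity per feature (arbitrary units) from an Axon 4000B scanner. Incubation used 200 nM of each Ni–NTA-purified, N-terminally polyhistidine- and DsRed-fused transcription factor from E. coli BL21-CodonPlus on a double-stranded custom Agilent array for 1 h at 25 °C, with 50 µM zinc acetate in the buffer, followed by washing.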", "values": [
      {"sequence": "CGCTGCCTCTTCGCTCGTCTCCGTCGAGTCCGTCACGCAGCGGAGTCACCTAGTGCAG", "binding signal": "8410 fluorescence intensity (a.u.)"},
      {"sequence": "AATACATTTTACCTCGATTGTTATTAGCATATTTTTTTTGCGGAGTCACCTAGTGCAG", "binding signal": "8890 fluorescence intensity (a.u.)"},
      {"sequence": "GCCGTATTCTCTCTTTACTCCCGGTTGGTGTTACCAACCGCGGAGTCACCTAGTGCAG", "binding signal": "9980 fluorescence intensity (a.u.)"},
      {"sequence": "TGTTTTTTTTTTGTAAGTTTAGTGGCATTCACATCCCATTCGGAGTCACCTAGTGCAG", "binding signal": "8270 fluorescence intensity (a.u.)"},
      {"sequence": "CGCTGCGGGGAGTCGGCGCTTCGTCGGAGGCGGCGGGGCGCGGAGTCACCTAGTGCAG", "binding signal": "9420 fluorescence intensity (a.u.)"},
      {"sequence": "ACCTAAATTAGTAGAACGAATCTTTCCTTTTCTCTCTTTTCGGAGTCACCTAGTGCAG", "binding signal": "8280 fluorescence intensity (a.u.)"},
      {"sequence": "ACAAATTATTAATGGTTTTGTTTTCCGAAATGTTTTTTATCGGAGTCACCTAGTGCAG", "binding signal": "8440 fluorescence intensity (a.u.)"},
      {"sequence": "AATGTTTGACCATTCGTCTTATTCAAAAAATTTATGTAATCGGAGTCACCTAGTGCAG", "binding signal": "9900 fluorescence intensity (a.u.)"},
      {"sequence": "ACTACTATGCATTATTGCAACCGCCACCTCTTTTCATGTTCGGAGTCACCTAGTGCAG", "binding signal": "9040 fluorescence intensity (a.u.)"},
      {"sequence": "GCACTGTTTTGTAAGTTGGGTGATGAGTTATACCCGGTTTCGGAGTCACCTAGTGCAG", "binding signal": "8090 fluorescence intensity (a.u.)"},
      {"sequence": "TCTTACATATTTGACCATTCGTCTTATCCAAAAATTTTATCGGAGTCACCTAGTGCAG", "binding signal": "8590 fluorescence intensity (a.u.)"},
      {"sequence": "TCTCCCCAACTTCCACCGCTAATTTCCGCCGCTGGCTTCGCGGAGTCACCTAGTGCAG", "binding signal": "8080 fluorescence intensity (a.u.)"},
      {"sequence": "GCTTACCATGAGAATAGGTTTATGGTCCTCTAGTTTTTCACGGAGTCACCTAGTGCAG", "binding signal": "8310 fluorescence intensity (a.u.)"},
      {"sequence": "AGTACTTGAGTTGAGACATTGTTATTCTTTTATTCCCTTTCGGAGTCACCTAGTGCAG", "binding signal": "9160 fluorescence intensity (a.u.)"},
      {"sequence": "CATTCCCAGCTGCTCCATGCTGCTGCCGCCCTCTCGTCCTCGGAGTCACCTAGTGCAG", "binding signal": "8370 fluorescence intensity (a.u.)"},
      {"sequence": "GGGATTTGGGAAGAAAGGGAGGTATACAGTGGAGAGATAGCGGAGTCACCTAGTGCAG", "binding signal": "8690 fluorescence intensity (a.u.)"},
      {"sequence": "CCTAGGTGCTCATTCCACCGCCATCGCCTCCGGCGAACTCCGGAGTCACCTAGTGCAG", "binding signal": "8050 fluorescence intensity (a.u.)"},
      {"sequence": "AGGTACAATAATCTGCCATTTTTTTATTTGTTATTTACAACGGAGTCACCTAGTGCAG", "binding signal": "10700 fluorescence intensity (a.u.)"},
      {"sequence": "TAATTTTTTATTCGTATCTGAAAACCACTTTCGACATCCACGGAGTCACCTAGTGCAG", "binding signal": "8570 fluorescence intensity (a.u.)"},
      {"sequence": "GCAGGTCAAGCGGTCACCCTCACTCCACCATTGTCATCTTCGGAGTCACCTAGTGCAG", "binding signal": "9440 fluorescence intensity (a.u.)"},
      {"sequence": "CGCACGCGTCTCCCAATTCCCAAACTTTCCCTTATTATTCCGGAGTCACCTAGTGCAG", "binding signal": "9320 fluorescence intensity (a.u.)"},
      {"sequence": "ACATCCCGTCCATTGCTCCTAGCACACGCATGCGTCGCCACGGAGTCACCTAGTGCAG", "binding signal": "8720 fluorescence intensity (a.u.)"},
      {"sequence": "TCCTCCCATCTCATTCTCATCTCACCATCCCACGCTTTTGCGGAGTCACCTAGTGCAG", "binding signal": "9570 fluorescence intensity (a.u.)"},
      {"sequence": "CGACGCGTGGACGCATCCTGTCCATCCATCACCTCCACCGCGGAGTCACCTAGTGCAG", "binding signal": "9560 fluorescence intensity (a.u.)"},
      {"sequence": "TATTTTTACCTTTTGCATCACTTTGGACCACCCAACACACCGGAGTCACCTAGTGCAG", "binding signal": "9830 fluorescence intensity (a.u.)"},
      {"sequence": "CGAGGTTCTTTGCTTCATACTTTTTTTTGGTGTTCTACTTCGGAGTCACCTAGTGCAG", "binding signal": "11200 fluorescence intensity (a.u.)"},
      {"sequence": "TCCACATTCTGAAAACTTCAGTCTTTCTCTCTTCAGCATCCGGAGTCACCTAGTGCAG", "binding signal": "9290 fluorescence intensity (a.u.)"},
      {"sequence": "TTCCTGTCACCTGAATATGGCTCCTTAGCATGAATATCTCCGGAGTCACCTAGTGCAG", "binding signal": "8240 fluorescence intensity (a.u.)"},
      {"sequence": "AGAACATGACTCTATTCTGATTCTCTTATCCTTTCTAATGCGGAGTCACCTAGTGCAG", "binding signal": "8250 fluorescence intensity (a.u.)"},
      {"sequence": "CCCGCCACCTCTACCTCGATGCGGCCCCGAATCCACCTGCCGGAGTCACCTAGTGCAG", "binding signal": "9060 fluorescence intensity (a.u.)"},
      {"sequence": "TTTCCATTTTTCTTACTGCTCCACATAATTCCTATTTCCCCGGAGTCACCTAGTGCAG", "binding signal": "10200 fluorescence intensity (a.u.)"},
      {"sequence": "CCAAGAGTCTGCTACGCTCCATCACCCCAACACATCTATTCGGAGTCACCTAGTGCAG", "binding signal": "8840 fluorescence intensity (a.u.)"},
      {"sequence": "GCTGTTCAGTTTTAGGGGCAAAATATTCACCAAAACTTGTCGGAGTCACCTAGTGCAG", "binding signal": "8030 fluorescence intensity (a.u.)"},
      {"sequence": "TTTCGATTGTTGTTTATTTTCCAGCATTAGTTTTTAAATCCGGAGTCACCTAGTGCAG", "binding signal": "8320 fluorescence intensity (a.u.)"},
      {"sequence": "CAGCTCGCACAACGATCTTTCACCACCACTGCACGAAAACCGGAGTCACCTAGTGCAG", "binding signal": "8480 fluorescence intensity (a.u.)"},
      {"sequence": "AGCACCGACCGCCAGTAACTGTTTTTTTTTTCCCTCGTGGCGGAGTCACCTAGTGCAG", "binding signal": "9320 fluorescence intensity (a.u.)"},
      {"sequence": "ATCATTTTTCGGTGTTTACTTTGTTGGATCCAGCGGAGAACGGAGTCACCTAGTGCAG", "binding signal": "8390 fluorescence intensity (a.u.)"},
      {"sequence": "AGCCCACTGTCCATAATCTCCAGCCCAGTAACAGCCCAATCGGAGTCACCTAGTGCAG", "binding signal": "8770 fluorescence intensity (a.u.)"},
      {"sequence": "GTTTATTGTCCTTTCAGGTTTGCTGTCATTTTCTCGGGAACGGAGTCACCTAGTGCAG", "binding signal": "9400 fluorescence intensity (a.u.)"},
      {"sequence": "GCACCCATATATTTGTAAGGCAAAGGACAAGTTGCATTCTCGGAGTCACCTAGTGCAG", "binding signal": "9670 fluorescence intensity (a.u.)"},
      {"sequence": "CTACCTCCCCACATCTCATCCATGCATTATGTTCCCTTCACGGAGTCACCTAGTGCAG", "binding signal": "8250 fluorescence intensity (a.u.)"},
      {"sequence": "AAACCTTCGCTCTAAATCTTCCTGCTTTTTATCCCAATTTCGGAGTCACCTAGTGCAG", "binding signal": "8420 fluorescence intensity (a.u.)"},
      {"sequence": "TCCAATTTTGGCCTCAATTTTCCTTTCATTCATAATGGGCCGGAGTCACCTAGTGCAG", "binding signal": "8290 fluorescence intensity (a.u.)"},
      {"sequence": "CTTAATTAATCATATGCTAATCGTATTTCTCGTTTTATGTCGGAGTCACCTAGTGCAG", "binding signal": "10100 fluorescence intensity (a.u.)"},
      {"sequence": "CCTATTTTTTGCTGGTTGGAGTTCTTCTATTTCTCTTTTACGGAGTCACCTAGTGCAG", "binding signal": "11300 fluorescence intensity (a.u.)"},
      {"sequence": "ATGGGCTTTCCTGCACTAGTGAATTGTGGTAATTCAGATACGGAGTCACCTAGTGCAG", "binding signal": "8070 fluorescence intensity (a.u.)"},
      {"sequence": "TTCCCCTTGCTCTTGCATTTGCTGCCGCTCTTCGCCTCTTCGGAGTCACCTAGTGCAG", "binding signal": "9270 fluorescence intensity (a.u.)"},
      {"sequence": "TCTAACCATTGACTTTTTTCCCCTGCCCGCTCTTACACGGCGGAGTCACCTAGTGCAG", "binding signal": "15100 fluorescence intensity (a.u.)"},
      {"sequence": "CCCAGTTTAGCACAGTTTTCATCTAGATTTGTCGTCTCGTCGGAGTCACCTAGTGCAG", "binding signal": "8630 fluorescence intensity (a.u.)"},
      {"sequence": "TTATCTCTAGCTTGTTCCAATCTCTGCATTTGAATGACTACGGAGTCACCTAGTGCAG", "binding signal": "9730 fluorescence intensity (a.u.)"},
      {"sequence": "GGTTAATTGTACCTGGTCGCCTGATCGCGTCACTTTACGCCGGAGTCACCTAGTGCAG", "binding signal": "8850 fluorescence intensity (a.u.)"},
      {"sequence": "CTCTTCCTCTGCATCTTCCACTTCCTCTTCCTCTTTTCTCCGGAGTCACCTAGTGCAG", "binding signal": "8470 fluorescence intensity (a.u.)"},
      {"sequence": "AATCCCACGCGATTCGTCGTCGATCTGGCCACGGCACTCCCGGAGTCACCTAGTGCAG", "binding signal": "8520 fluorescence intensity (a.u.)"},
      {"sequence": "TATTCGCCATTTTTTTCAGTTTTCTTAATCACGTCATTTACGGAGTCACCTAGTGCAG", "binding signal": "10100 fluorescence intensity (a.u.)"}
    ]}
  ]
}
